PubChem BioAssay AID686943, Drosophila RNAi Screening Center | 2013
Test: 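Fly genes whose loss alters ERK activation after insulin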 (primary screen). Cell system: Drosophila S2R+ haemocyte-like cells expressing YFP-tagged ERK (Rolled). Knock-down reagent: long dsRNA against Drosophila genes. Challenge: insulin stimulation versus unstimulated cells; dose and duration not given. Measured: 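Antibody staining for doubly phosphorylated ERK divided by ERK-YFP signal, as plate z-scores, in insulin-treated and untreated cells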. Scale: replicate 1, z-score of dpERK with insulin: higher = more active ERK per ERK-YFP after insulin.
The screen tested about 23,000 reagents; this is an unselected part of those that have a named target and a result. 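Extra replicates exist only for a retested subset of genes; insulin dose and duration not given; both raised and lowered dpERK matter.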 Reagents against one gene are numbered here. Names joined by + are all predicted targets of the reagent. Further read-outs or replicates are left out here. Not stated in the record: the amount of reagent, the time to read-out.

no.	target gene	reagent	replicate 1, z-score of dpERK with insulin
1	CG15330	1	-0.53
2	AttA	1	-0.27
3	CG14693	1	0.8
4	cac	1	0.47
5	cac	2	-0.15
6	Cyp6v1	1	-0.08
7	XRCC1	1	-0.19
8	sta	1	-0.47
9	CG12883	1	-0.39
10	CG1314	1	-0.56
11	slow	1	0.34
12	slow	2	0.73
13	CG5707	1	0.22
14	Hgsnat	1	0.34
15	CG42304 + Snup	1	0.27
16	CG42304 + Snup	2	0.13
17	CG42304 + Snup	3	-0.21
18	CG5056	1	0.51
19	ric8b + ric8a	1	0.52
20	CG31678	1	1.26
21	CG31678	2	1.49
22	CG12204	1	-0.58
23	MstProx + Mst84Da	1	-0.57
24	GLaz	1	-1.03
25	DCTN3-p24	1	-0.4
26	Mes2	1	0.39
27	Mes2	2	-0.87
28	Slc25A46b	1	0.2
29	CG1773	1	0.12
30	CG42788	1	1.38
31	CG42788	2	0.29
32	CG42788	3	0.52
33	CG10051	1	0.98
34	wap	1	-0.94
35	CG8353	1	0.14
36	fit	1	0.4
37	CG31126	1	0.33
38	mim	1	-2.02
39	Slob	1	1.09
40	Slob	2	-0.26
41	lncRNA:CR43435	1	0.19

A run of entries from the list above:
no.	target gene	reagent	replicate 1, z-score of dpERK with insulin
10	CG1314	1	-0.56
11	slow	1	0.34
12	slow	2	0.73
13	CG5707	1	0.22
14	Hgsnat	1	0.34
15	CG42304 + Snup	1	0.27
16	CG42304 + Snup	2	0.13
17	CG42304 + Snup	3	-0.21

The list goes on.
no.	target gene	reagent	replicate 1, z-score of dpERK with insulin
42	CG9512	1	-0.93
43	CG32006	1	0.13
44	CG3611	1	-1.64
45	siz	1	0.77
46	siz	2	0.59
47	siz	3	-0.17
48	CG14212	1	0.69
49	l(3)04053	1	1.19
50	PICK1	1	0.1
51	PICK1	2	-0.36
52	CG5254	1	-0.62
53	CG16813	1	0.63
54	tj	1	0.22
55	Pfas	1	0.47
56	kek6	1	1
57	CG11030	1	1.56
58	Mal-A5	1	0.02
59	Task6	1	0.66
60	del	1	1.13
61	Akh	1	-0.28
62	CysRS	1	-0.49
63	CG32985	1	0.27
64	mRpS33	1	-0.3
65	ine	1	0.18
66	CSN1b	1	-0.05
67	Cyp6d5	1	-0.13
68	tkv	1	0.58
69	tkv	2	0.53
70	tkv	3	0.57
71	Tailor	1	0.81
72	Acsl	1	0.4
73	Tsp42Eq	1	0.25
